Test results: PubChem BioAssay AID540256 (National Center for Advancing Translational Sciences (NCATS), 2011)
Among all 300,000 compounds or so, about 3,700 (1.2%) were called active. Inconclusive results, whose numbers are uncertain, are shown with a selection of clear calls. Calls come from the whole dose curve; tested in HEK293 cells. Potencies of inconclusive entries are doubtful fits and often do not repeat.

Experiment: qHTS for Inhibitors of binding or entry into cells for Lassa Virus; note: nearly all actives have a fitted effect of over 50% in size
Settings: Lassa virus pseudotype entry inhibition, cell reporter; activity change, negative = inhibition: at 37.9 µM (top of the series) unless noted
% is set by controls: 0 for no effect and ±100 for the full control effect; potency is the fitted concentration of half-maximal effect.

Row | SMILES | Potency | activity change, negative = inhibition
1 | CCOc1ccc(NC2=CC(=O)C(=O)c3ccccc32)cc1 | inconclusive: 25.1 µM [inhibitor, single point] | –
2 | COc1cccc(CN(C(=O)c2ccccc2)C2CCS(=O)(=O)C2)c1 (stereo unspecified) | – | inactive: 18% [at 46.1 µM]
3 | COc1cccc(CNCCc2c[nH]c3ccccc23)c1OCc1ccc(F)cc1 | inconclusive: 35.5 µM [inhibitor, single point] | –
4 | O=C(Nc1ccc(F)c(Cl)c1)c1ccc2c(Cl)c3c(nc2c1)CCCC3 | – | inactive: 12.4% [at 46.1 µM]
5 | Nc1nnnn1/N=C\c1ccc(Cl)c([N+](=O)[O-])c1 | inconclusive: 14.6 µM [inhibitor, partial curve, poor fit] | –
6 | Clc1ccc(OCCn2ccnc2)c2ccccc12 | – | inactive: 11% [at 14.3 µM]
7 | CCc1nnc(NS(=O)(=O)c2ccc(NC(=O)C(c3ccccc3)c3ccccc3)cc2)s1 | – | inactive: -1.61% [at 46.1 µM]
8 | CCc1ccc(-c2csc(NC(=O)COC(=O)CCc3nc4ccccc4s3)n2)cc1 | – | inactive: 21.1%
9 | CCCCc1ccc(NC(=S)N2CCN(C(=O)c3ccco3)CC2)cc1 | inconclusive: 8.91 µM [inhibitor, partial curve] | –
10 | O=C(Cn1cnc2ccccc2c1=O)Nc1ccc2c(c1)OCCO2 | – | inactive: -0.405%
11 | O=C(Nc1cccc(-n2cnnn2)c1)c1ccco1 | inconclusive: 5.8 µM [activator, partial curve, poor fit] | –
12 | Cc1cc(C)c2c(n1)nn1c(NCCCN(C)C)cc(C)nc21 | – | inactive: -9.09%
13 | COc1cccc2cc(-c3nc(-c4ccccc4F)no3)c(=O)oc12 | inconclusive: 3.16 µM [activator, single point] | –
14 | Cc1cccc(NC(=O)CN(C)S(=O)(=O)c2ccc3c(c2)n(C)c(=O)c(=O)n3C)c1C | inconclusive: 14.1 µM [activator, single point] | –
15 | CC1CCN(Cc2c(C(=O)N/N=C/c3ccccc3O)nnn2-c2nonc2N)CC1 | inconclusive: 11.2 µM [inhibitor, partial curve, poor fit] | –
16 | CCCCn1c(N)c(N(CCOC)C(=O)CSCc2ccccc2C)c(=O)[nH]c1=O | – | inactive: 2.61%
17 | O=C(CSc1ccc2c(c1)OCCO2)Nc1ccc(Br)cc1 | inconclusive: 5.62 µM [inhibitor, single point] | –
18 | O=C(Cn1c(SCc2ccc(F)cc2)nc2cccnc21)Nc1ccccc1F | inconclusive: 7.08 µM [activator, partial curve, poor fit] | –
19 | CCCn1cc(C(=O)O)cn1 | – | inactive: 7.26% [at 46.1 µM]
20 | COc1cccc(-c2cc(C(=O)NCCc3ccc(OC)c(OC)c3)no2)c1 | – | inactive: 3.42% [at 46.1 µM]
21 | CC(/C=C\C=C\c1ccccc1)=N\NC(=O)c1cncc(Br)c1 | inconclusive: 35.5 µM [inhibitor, single point] | –
22 | O=C(Nc1nnc(-c2ccccc2Cl)o1)c1ccc(S(=O)(=O)N2CCCCCC2)cc1 | inconclusive: 7.94 µM [inhibitor, partial curve] | –
23 | O=C(Nc1nc2c(s1)CCCC2)c1cc2n(n1)C(C(F)(F)F)CC(C1CC1)N2 (stereo unspecified) | inconclusive: 35.5 µM [inhibitor, single point] | –

Full records, looked up by structure. Order of values: Potency	activity change, negative = inhibition
COc1cccc2cc(-c3nc(-c4ccccc4F)no3)c(=O)oc12 in the list: inconclusive: 3.16 µM [activator, single point]	–
CC1CCN(Cc2c(C(=O)N/N=C/c3ccccc3O)nnn2-c2nonc2N)CC1 in the list: inconclusive: 11.2 µM [inhibitor, partial curve, poor fit]	–
COc1cccc(CN(C(=O)c2ccccc2)C2CCS(=O)(=O)C2)c1 (stereo unspecified) in the list: –	inactive: 18% [at 46.1 µM]

The list continues.

Row | SMILES | Potency | activity change, negative = inhibition
24 | O=C(N/N=C/c1ccc[nH]1)c1ccccc1O | – | inactive: -13.1%
25 | O=S(=O)(NCC(c1ccccc1)N1CCNCC1)c1ccc(Cl)cc1 (stereo unspecified) | inconclusive: 32.6 µM [inhibitor, single point] | –
26 | CC(C)C(=O)N1CCN(c2ccc(NC(=S)NC(=O)c3cc4ccccc4o3)cc2)CC1 | inconclusive: 14.1 µM [inhibitor, single point] | –
27 | CC1CCCC(C)N1C(=O)COC(=O)Cc1c[nH]c2ccccc12 (stereo unspecified) | – | inactive: 2.97% [at 46.1 µM]
28 | Cc1ccc(C(C(=O)NC2CCCC2)N(C(=O)c2csnn2)C2CCCC2)o1 (stereo unspecified) | – | inactive: 13.9%
29 | CCCCN(C)CC(O)Cn1cc(/C=C/C(=O)c2ccc(Br)cc2)c2ccccc21 (stereo unspecified) | inconclusive: 35.5 µM [inhibitor, single point] | –
30 | Cc1ccc(S(=O)(=O)N2CCC(C)CC2)cc1[N+](=O)[O-] | inconclusive: 12.6 µM [inhibitor, partial curve, poor fit] | –
31 | Cc1nn(Cc2ccccc2)c(C)c1C(=O)NC1CCCc2ccccc21 (stereo unspecified) | – | inactive: 0.616%
32 | CCCCCCSC1=C(C#N)C(c2ccccc2)CC(=O)N1 (stereo unspecified) | – | inactive: -2.49%
33 | CCn1c(C)c(C)c2cc(C(=O)NCC(C)c3ccccc3)ccc21 (stereo unspecified) | inconclusive: 31.6 µM [inhibitor, single point] | –
34 | CC(=O)c1c(C)nn(CC(O)Cn2c3c(c4cc(C)ccc42)CCCC3=O)c1C (stereo unspecified) | inconclusive: 35.5 µM [inhibitor, single point] | –
35 | CCOc1ccc(C(=O)Nc2nnc(C(C)C)s2)cc1OCC | inconclusive: 1 µM [inhibitor, partial curve, poor fit] | –
36 | O=C(NCCC1=CCCCC1)NC1CCCCC1 | inconclusive: 20 µM [inhibitor, single point] | –
37 | Cc1cc(C)c(C)c(S(=O)(=O)NCc2ccncc2)c1C | inconclusive: 11.2 µM [inhibitor, partial curve, poor fit] | –
38 | Cc1cc(=O)n2nc(N(C)CC(=O)NCc3ccccc3C)sc2n1 | – | inactive: 10.6% [at 46.1 µM]
39 | CCN1CCN(CCNC(=O)CCc2c(C)c3c(C)nn(-c4ccccc4)c3n(C)c2=O)CC1 | inconclusive: 35.5 µM [inhibitor, single point] | –
40 | COc1ccc(OC)c(NC(=O)COC(=O)CN2C(=O)NC3(CCCC3)C2=O)c1 | inconclusive: 1.26 µM [inhibitor, single point] | –
41 | CC(C)C1NC(=S)N(C2CCCCC2)C1=O (stereo unspecified) | inconclusive: 35.5 µM [inhibitor, single point] | –
42 | CCc1ccccc1Nc1nn2c(=O)c3ccc(C(=O)NCCC4=CCCCC4)cc3nc2s1 | – | inactive: 4.92% [at 46.1 µM]
43 | COCc1cc(=O)[nH]c(/N=C(\N)Nc2ccc(C)cc2C)n1 | inconclusive: 2.82 µM [activator, partial curve, poor fit] | –
44 | CCOCCc1nn2c(=O)cc(COC(=O)c3ccccc3OC)nc2s1 | – | inactive: -18.8% [at 46.1 µM]
45 | CC(C)CNC1=C(C(=S)Nc2ccccc2)C(=O)CC(C)(C)C1 | inconclusive: 10 µM [inhibitor, partial curve] | –
46 | CCOC(=O)C1CCCN(C(=O)c2ccc3c(c2)sc2nc(-c4cccc(OC)c4)cn23)C1 (stereo unspecified) | – | inactive: 1.85% [at 46.1 µM]
